Experiment [1] concerns the target T1, GST-CaRtg1 (C. albicans) (UniProt Q5APP3).
T1 sequence: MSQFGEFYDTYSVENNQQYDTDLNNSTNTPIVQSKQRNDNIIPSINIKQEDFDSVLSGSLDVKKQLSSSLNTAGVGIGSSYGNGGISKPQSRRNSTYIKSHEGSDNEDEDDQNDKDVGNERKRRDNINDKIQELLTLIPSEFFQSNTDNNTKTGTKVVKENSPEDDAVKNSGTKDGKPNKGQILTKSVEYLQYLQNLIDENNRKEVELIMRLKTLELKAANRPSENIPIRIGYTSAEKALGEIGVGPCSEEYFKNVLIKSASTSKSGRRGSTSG
As to the kind of experiment: pull-down; GST-Rtg1 present in E. coli cell lysates immobilized onto glutathione Sepharose-4B beads; E. coli cell lysates containing MBP-Rtg3/RtgX added; after washing, beads analysed by SDS-PAGE and Coomassie Brilliant Blue staining; only the target purified.

The chains behind the UniProt entries cited, without tags or fusion partners.
UniProt A0A1D8PF20: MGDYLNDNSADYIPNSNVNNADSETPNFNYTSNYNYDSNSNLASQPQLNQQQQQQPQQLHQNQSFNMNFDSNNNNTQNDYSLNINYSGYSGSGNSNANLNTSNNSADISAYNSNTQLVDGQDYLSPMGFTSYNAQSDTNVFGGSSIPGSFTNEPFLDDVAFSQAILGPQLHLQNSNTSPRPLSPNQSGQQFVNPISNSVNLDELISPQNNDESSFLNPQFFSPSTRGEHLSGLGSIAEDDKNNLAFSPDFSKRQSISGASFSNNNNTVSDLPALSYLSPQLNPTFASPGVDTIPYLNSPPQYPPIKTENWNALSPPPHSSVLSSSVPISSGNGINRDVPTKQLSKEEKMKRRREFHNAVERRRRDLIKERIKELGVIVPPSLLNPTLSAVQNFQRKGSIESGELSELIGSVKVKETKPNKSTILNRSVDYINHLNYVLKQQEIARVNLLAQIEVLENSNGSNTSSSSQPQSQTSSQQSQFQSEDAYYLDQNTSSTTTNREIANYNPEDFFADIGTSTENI

In experiment [2] the target is T2, GST-ScRtg1 (S. cerevisiae) (UniProt P32607).
T2 sequence: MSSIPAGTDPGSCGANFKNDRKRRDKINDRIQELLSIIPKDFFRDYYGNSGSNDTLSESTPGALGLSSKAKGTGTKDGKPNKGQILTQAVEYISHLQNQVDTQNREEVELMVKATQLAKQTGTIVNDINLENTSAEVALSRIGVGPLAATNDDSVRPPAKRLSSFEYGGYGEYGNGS
The experiment is described as above.

Results are given in words; binding and its absence hold for the method and conditions named. Binding seen in cells or lysates may run through a third protein. Some results given as binding are weak or reduced against the parent protein; the word gives no strength. Tags and fused reporters may be left off the sequences shown.

For the molecule “MBP-CaRtg3 (from UniProt A0A1D8PF20 1-520)”, the binding result in experiment [1] is reported as “binds”.

B1: MBP-ScRtg3 (protein, UniProt P38165 1-486)
chain: MMNNNESEAENQRLLDELMNQTKVLQETLDFSLVTPTPHHNDDYKIHGSAYPGGETPAQQHEKLSYINTHNSNDNNNLMGSQARSNSQTPTASTIYEEAESQSSYLDDMFRTSQGGRPVTQNSISSIGQGPLRSSYSMAYDSPVDRAMNTPLQQQEGLKAELPHDFLFQHGTDDTMYNLTDDLSSSLSSSINSDMMTPNTYSSSFSYNPQSLGPASVSSTYSPKVRSPSSSFRAGSFLSSSFRHGSINTPRTRHTSISSNMTENIGPGSVPKILGGLTSDEKLRRKREFHNAVERRRRELIKQKIKELGQLVPPSLLNYDDLGKQIKPNKGIILDRTVEYLQYLAEILEIQARKKKALLAKIKELEEKKSSVAALSPFTNNHHASSGQNNSENSEERIIDIRSVPNALMNEQNSKAELHNWEPPLYDSVGNHNHAGTMESHPHTNIHEELKEFLSGDLIEAEDNAKLMFGDDNSNPADYLLEFGSG
For the molecule B1, in experiment [2], the binding entry is reported as “binds”.
